Values from PubChem BioAssay AID1224828 (NIAID, 2016).
Aim: 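Find genes required for NF-kappaB p65 moving into the nucleus after LPS in mouse macrophages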 (primary screen). System: mouse RAW264.7 G9 macrophage reporter cells (GFP-p65, Tnf promoter-mCherry). Knock-down reagent: siRNA pool against mouse genes, 100 nM. Duration: 2 days siRNA transfection, then 40 min LPS before fixation. Treatment: LPS (Salmonella minnesota R595) at 10 ng/ml. Measured: 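Imaged p65 nuclear translocation ratio, normalised to the plate median, converted to robust z-scores and averaged across two replicates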. Direction: p65 translocation robust z-score: higher = more nuclear NF-kappaB p65 after LPS than the plate median; nuclear/cytoplasmic p65 ratio: higher = more nuclear NF-kappaB p65. Hit rule: 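Called active when z exceeds 3.3 or falls under -1.56 (median of Tlr4 controls), giving activity score of at least 50; no calls for control wells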. Calls: active = hit (p65 shift raised or lowered); inactive = no clear change.
In all, the deposit lists about 17,000 reagents; this is an unselected part. Over the whole deposit, 762 (4.5%) were called active. 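Active calls include both raised and lowered p65 entry, mostly lowered; wells with fewer than 50 cells lack a z-score.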 The raw values are shown without normalisation. A number with no mark means an inactive call. Reagents against one gene are numbered here.

gene knocked down | reagent no. | p65 translocation robust z-score | nuclear/cytoplasmic p65 ratio, rep 1 | nuclear/cytoplasmic p65 ratio, rep 2 | low cell count flag
Pcdh11x | 1 | 0.32 | 1.56 | 1.39 | enough cells to score
Emc6 | 1 | -0.94 | 1.32 | 1.4 | enough cells to score
Syt14 | 1 | – | 1.36 | 1.19 | fewer than 50 cells per well; well left out of scoring
Bcs1l | 1 | -0.05 | 1.61 | 1.6 | enough cells to score
Guca1a | 1 | -0.24 | 1.39 | 1.35 | enough cells to score
Sag | 1 | -1 | 1.41 | 1.34 | enough cells to score
Fam193b | 1 | -0.16 | 1.42 | 1.97 | enough cells to score
Usp31 | 1 | 0.24 | 1.71 | 1.59 | enough cells to score
Zfp108 | 1 | – | 1.17 | 1.17 | fewer than 50 cells per well; well left out of scoring
Ppp2r3c | 1 | 1.74 | 1.16 | 1.51 | enough cells to score
Acsm4 | 1 | – | 1.32 | 1.35 | fewer than 50 cells per well; well left out of scoring
Tenm4 | 1 | -1.64 (active) | 1.56 | 1.21 | enough cells to score
Rtn4r | 1 | -0.72 | 1.42 | 1.41 | enough cells to score
Tep1 | 1 | 0.19 | 1.49 | 1.6 | enough cells to score
Nabp2 | 1 | -0.02 | 1.41 | 1.45 | enough cells to score
Or14j5 | 1 | -0.94 | 1.47 | 1.29 | enough cells to score
Sypl1 | 1 | – | 1.44 | 1.18 | fewer than 50 cells per well; well left out of scoring
Mst1r | 1 | – | 1.68 | 1.17 | fewer than 50 cells per well; well left out of scoring
Vmn1r232 | 1 | – | 1.45 | 1.13 | fewer than 50 cells per well; well left out of scoring
Gsdmc | 1 | -0.38 | 1.73 | 1.53 | enough cells to score
Psme3ip1 | 1 | 0.1 | 1.41 | 1.29 | enough cells to score
Dyrk1a | 1 | -0.74 | 1.55 | 1.31 | enough cells to score
Agps | 1 | -0.66 | 1.5 | 1.54 | enough cells to score
Rhox6 | 1 | -0.11 | 1.33 | 1.21 | enough cells to score
Tox | 1 | – | 1.5 | 1.18 | fewer than 50 cells per well; well left out of scoring
Sqle | 1 | -0.8 | 1.45 | 1.42 | enough cells to score
Rb1 | 1 | 0.13 | 1.57 | 1.5 | enough cells to score
Zbtb3 | 1 | 1.05 | 1.6 | 1.33 | enough cells to score
Shisa7 | 1 | 0.51 | 1.6 | 1.66 | enough cells to score
Gsta4 | 1 | -0.58 | 1.63 | 1.4 | enough cells to score
Or2b28 | 1 | -0.28 | 1.56 | 1.39 | enough cells to score
A830019P07Rik | 1 | 0.86 | 1.47 | 1.66 | enough cells to score
Rpl22l1 | 1 | – | 1.09 | 1.18 | fewer than 50 cells per well; well left out of scoring
Mapk10 | 1 | 0.84 | 1.67 | 1.48 | enough cells to score
Mapk10 | 2 | 0.69 | 1.65 | 1.5 | enough cells to score
Gtsf1l | 1 | -0.27 | 1.27 | 1.52 | enough cells to score

Next part (4 carried over from the part before).
gene knocked down | reagent no. | p65 translocation robust z-score | nuclear/cytoplasmic p65 ratio, rep 1 | nuclear/cytoplasmic p65 ratio, rep 2 | low cell count flag
Rpl22l1 | 1 | – | 1.09 | 1.18 | fewer than 50 cells per well; well left out of scoring
Mapk10 | 1 | 0.84 | 1.67 | 1.48 | enough cells to score
Mapk10 | 2 | 0.69 | 1.65 | 1.5 | enough cells to score
Gtsf1l | 1 | -0.27 | 1.27 | 1.52 | enough cells to score
Upp1 | 1 | 1.27 | 1.63 | 1.74 | enough cells to score
Minpp1 | 1 | 0.27 | 1.42 | 1.43 | enough cells to score
Gng11 | 1 | 0.06 | 1.52 | 1.59 | enough cells to score
Plod3 | 1 | -0.28 | 1.34 | 1.15 | enough cells to score
Scamp4 | 1 | – | 1.58 | 1.53 | fewer than 50 cells per well; well left out of scoring
Or4g17 | 1 | 3.07 | 1.89 | 1.98 | enough cells to score
Arl1 | 1 | 1.46 | 1.73 | 1.8 | enough cells to score
Pramel27 | 1 | 0.82 | 1.62 | 1.43 | enough cells to score
Ntn1 | 1 | -0.22 | 1.34 | 1.45 | enough cells to score
Tamalin | 1 | -0.44 | 1.4 | 1.29 | enough cells to score
Or8b101 | 1 | 1.06 | 1.6 | 1.38 | enough cells to score
Trf | 1 | 1.06 | 1.66 | 1.65 | enough cells to score
Vsnl1 | 1 | -0.38 | 1.44 | 1.47 | enough cells to score
Sod1 | 1 | 0.69 | 1.64 | 1.66 | enough cells to score
Gcnt3 | 1 | -0.58 | 1.47 | 1.42 | enough cells to score
Setd5 | 1 | – | 1.41 | 1.34 | fewer than 50 cells per well; well left out of scoring
Trpm3 | 1 | 0.92 | 1.58 | 1.27 | enough cells to score
Mbtps1 | 1 | -0.89 | 1.31 | 1.25 | enough cells to score
Atp13a1 | 1 | 0.92 | 1.74 | 1.77 | enough cells to score
Lrfn1 | 1 | – | 1.7 | 1.48 | fewer than 50 cells per well; well left out of scoring
Ptn | 1 | -0.23 | 1.46 | 1.38 | enough cells to score
Rgs9bp | 1 | – | 1.32 | 1.03 | fewer than 50 cells per well; well left out of scoring
Or4a71 | 1 | -0.28 | 1.56 | 1.3 | enough cells to score
